Test results taken from patent publication US20250277023A1.
Results are given in words; binding and its absence hold for the method and conditions named. Some entries that bind do so weakly or less than the wild type.

Protein sequences, listed by entry. Tags and fused reporters are not part of them. Residues count along the entry.
UniProt Q9NZQ7, residues 19-290: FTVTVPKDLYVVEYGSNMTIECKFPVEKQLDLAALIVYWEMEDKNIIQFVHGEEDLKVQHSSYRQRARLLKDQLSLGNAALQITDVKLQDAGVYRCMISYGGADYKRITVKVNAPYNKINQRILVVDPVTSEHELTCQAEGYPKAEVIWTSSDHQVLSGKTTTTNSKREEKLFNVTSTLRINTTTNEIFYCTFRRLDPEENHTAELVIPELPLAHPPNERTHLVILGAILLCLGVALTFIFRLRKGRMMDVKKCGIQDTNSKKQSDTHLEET
UniProt Q495A1, residues 22-244: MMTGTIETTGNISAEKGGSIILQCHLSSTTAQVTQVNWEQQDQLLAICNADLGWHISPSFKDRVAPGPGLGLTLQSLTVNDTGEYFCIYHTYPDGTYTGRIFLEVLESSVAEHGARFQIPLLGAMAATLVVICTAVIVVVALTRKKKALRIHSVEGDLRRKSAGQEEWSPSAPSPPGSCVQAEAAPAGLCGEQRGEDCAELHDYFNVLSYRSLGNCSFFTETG

Assays:
[1] = target: PD-L1 (on CHO-PD-L1 cells) (UniProt Q9NZQ7); assay: flow cytometry (FCM) on CHO-PD-L1 cells, positive antibody
[2] = target: TIGIT (on CHO-TIGIT cells) (UniProt Q495A1); assay: flow cytometry (FCM) on CHO-TIGIT cells

Row | Binder | binding [1] | binding [2]
1 | R0919 (PD-L1 monoclonal antibody) (antibody, V domains shown) VH: EVQLQESGPGLVKPSETLSLTCAVYGDSITSGYWNWIRKPPGKGLEYMGYISYTGSTYQNPSLKSRITFSRDTSKNQYYLKLSSVTAADTATYYCARSRAWIRTYFDYWGQGTLVTVSS VL: EIVLTQSPDFQSVTPKEKVTITCSVSSSISSSNLHWYQQKPDQSPKLLIYGTSNLASGVPSRFSGSGSGTDFTLTINSLEAEDAATYYCQQWSSYPLTFGQGTKLEIK | binds | 
2 | R0968 (PD-L1 monoclonal antibody) (antibody, V domains shown) VH: QVQLQESGPGLVKPSETLSLTCAVYGDSITSGYWNWIRKPPGKCLEYIGYISYTGSTYQNPSLKSRITMSRDTSKNQYYLKLSSVTAADTAVYYCARSRAWIRTYFDYWGQGTLVTVSS VL: DIQMTQSPSSLSASVGDRVTITCSVSSSISSSNLHWYQQKPGKAPKPWIYGTSNLASGVPSRFSGSGSGTDYTLTISSLQPEDFATYYCQQWSSYPLTFGCGTKLEIK | binds | 
3 | R0774 (Tigit monoclonal antibody) (antibody, V domains shown) VH: QVQLVQSGAEVKKPGSSVKVSCKASGYSFTSYWMNWVRQAPGQGLEWIGMIRPSDSETRLNQMFKDRVTITVDKSTSTAYMELSSLRSEDTAVYYCAGIHDYGHGAYWGQGTLVTVSS VL: DIQMTQSPSSLSASVGDRVTITCRASENIYSNLAWYQQKPGKSPKLLVYAASHLPDGVPSRFSGSGSGTDYSLTISSLQPEDFATYYCQHFWGTPRTFGQGTKLEIK |  | binds
